Assay results reported in PubChem BioAssay (NCATS).
Values joined by “and” are separate entries in the source; they are usually repeats but may differ in a detail not shown here. Identical values can stand only once. The list shows a part of the results. The main result of the screen is listed elsewhere. These columns were measured beside it and carry no call. Most of these compounds were active or inconclusive in the main read-out, so they are no random draw.

Test: qHTS assay for small molecule agonists of retinoid X receptor alpha signaling (AID 588544)
Conditions: HEK293T RXRa-UAS-bla, beta-lactamase reporter, 18 h; 530 nm emission

Compound	max response
CC(C)Oc1cc(-n2nc(C(C)(C)C)oc2=O)c(Cl)cc1Cl	32.7%
CCNc1nc(Cl)nc(NC(C)(C)C)n1	-1.48%
CC[C@H](C)[C@H]1O[C@]2(C=C[C@@H]1C)C[C@@H]1C[C@@H](C/C=C(\C)[C@@H](O[C@H]3C[C@H](OC)[C@@H](O[C@H]4C[C@H](OC)[C@@H](NC)[C@H](C)O4)[C@H](C)O3)[C@@H](C)/C=C/C=C3\CO[C@@H]4[C@H](O)C(C)=C[C@@H](C(=O)O1)[C@]34O)O2	-55.1%
CC(C)=CC1C(C(=O)OCc2coc(Cc3ccccc3)c2)C1(C)C (stereo not given)	-3.83%
CCCCSP(=O)(SCCCC)SCCCC	20%
CC(=O)[O-].CC(=O)[O-].O.O.[Cd+2]	48.4%
COC(=O)c1ccccc1C(=O)OC	-12%
COC1=CC(=O)OC(CCc2ccc3c(c2)OCO3)C1 (stereo not given)	55.4%
O=C(O)c1ccccc1Nc1cccc(C(F)(F)F)c1	43.1%
O=[N+]([O-])C(Br)(CO)CO	59.9%
O=S(=O)(O)C(F)(F)C(F)(F)C(F)(F)C(F)(F)F	18.3% and -20.2%
CNC(=O)Oc1cc(C)c(SC)c(C)c1	-34.7%

Test: qHTS assay for small molecule antagonists of retinoid X receptor alpha signaling (AID 588546);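 also: cells stimulated with 9-cis-retinoic acid as agonist; % is scaled to controls: 0 for no effect and ±100 for the full control effect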
Conditions: HEK293T RXRa-UAS-bla, beta-lactamase ratio, antagonist mode; measured here: W530 green channel, cytotoxicity proxy
Method in brief: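 Beta-lactamase reporter inhibition, read as CCF4 fluorescence ratio (ex 405, em 460/530 nm) after 2 h at RT. HEK293T UAS-bla cells, 2500/well, were stimulated with 9-cis-RA at 500 or 100 nM final alongside test compound for 18 h at 37 C.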

Compound	max response
Cc1ccccc1N	0.639%
CC(C)Oc1cc(-n2nc(C(C)(C)C)oc2=O)c(Cl)cc1Cl	-13.1%
CCNc1nc(Cl)nc(NC(C)(C)C)n1	4.08%
O=C(O)[C@@H]1[C@H](C(=O)O)[C@@]2(Cl)C(Cl)=C(Cl)[C@]1(Cl)C2(Cl)Cl	-3.69%
Cc1cc(C)nc(NC(=O)NS(=O)(=O)c2ccccc2C(=O)OC2COC2)n1	-2.65%
CC12CC1(C)C(=O)N(c1cc(Cl)cc(Cl)c1)C2=O (stereo not given)	5.26%
Cc1[nH]c(=O)n(C(C)(C)C)c(=O)c1Cl	4.34%
CCC[N+](=O)[O-]	-5.25%
CC[C@H](C)[C@H]1O[C@]2(C=C[C@@H]1C)C[C@@H]1C[C@@H](C/C=C(\C)[C@@H](O[C@H]3C[C@H](OC)[C@@H](O[C@H]4C[C@H](OC)[C@@H](NC)[C@H](C)O4)[C@H](C)O3)[C@@H](C)/C=C/C=C3\CO[C@@H]4[C@H](O)C(C)=C[C@@H](C(=O)O1)[C@]34O)O2	-39.3%
CCCCSP(=O)(SCCCC)SCCCC	15.1%
Brc1cccc(-c2ccccc2)c1	-3.8%
CC(=O)[O-].CC(=O)[O-].O.O.[Cd+2]	14.3%
CCc1cnc(C2=NC(C)(C(C)C)C(=O)N2)c(C(=O)O)c1 (stereo not given)	-9.93%
CCOC(=O)[C@H](C)Oc1ccc(Oc2nc3ccc(Cl)cc3o2)cc1	-12.3%
C1=Cc2cccc3cccc1c23	-2.5%
CCC(C)Nc1c([N+](=O)[O-])cc(C(C)(C)C)cc1[N+](=O)[O-] (stereo not given)	8.6%
C[C@]12CC[C@H]3[C@@H](CCC4=CC(=O)CC[C@@]43C)[C@@H]1CC[C@@H]2O	13.6%
COC(=O)c1ccccc1C(=O)OC	-7.84%
COc1ccccc1N	-10.5%

Compound	max response
CN/C(=N/[N+](=O)[O-])NCC1CCOC1 (stereo not given)	6.24%
CC(C)CCON=O	2.88%
C/C=C/C=O	-5.56%
CCCCCOC(=O)c1ccccc1C(=O)OCCCCC	-9.33%
CCCSC(=O)N(CCC)CCC	-18.8%
O=S(=O)(O)C(F)(F)C(F)(F)C(F)(F)C(F)(F)C(F)(F)C(F)(F)F	6.79%
COC1=CC(=O)OC(CCc2ccc3c(c2)OCO3)C1 (stereo not given)	26.6%
O=[N+]([O-])C(Br)(CO)CO	-50.8%
CCOC(=O)C(C)Oc1ccc(Oc2nc3ccc(Cl)cc3o2)cc1 (stereo not given)	13%
S=C(S)NCCNC(=S)S	15.3%
CCC(C)(c1ccc(O)cc1)c1ccc(O)cc1	-11.6%
CCNc1nc(NC(C)(C)C)nc(SC)n1	12.7%
COc1cc(Cl)c(OC)cc1Cl	-20.5%
O=CNC(N1CCN(C(NC=O)C(Cl)(Cl)Cl)CC1)C(Cl)(Cl)Cl (stereo not given)	1.51%
CCN(CC)c1nc(C)cc(OP(=S)(OC)OC)n1	-3.68%
O=S(=O)(O)C(F)(F)C(F)(F)C(F)(F)C(F)(F)F	-5.42% and -3.46%
CNC(=O)Oc1cc(C)c(SC)c(C)c1	-16.5%
CCNCC	-16.5%
CCC(CC)Nc1c([N+](=O)[O-])cc(C)c(C)c1[N+](=O)[O-]	-18.4%
